No constants are given. Whether binding was seen depends on the method and setting. In cells and extracts the contact can be indirect. These calls come from enrichment with a bait or labelling near it, and not all partners need be listed.

Experimental findings from paper PMC6196236 are described below.

The labels stand for the following.
B1: 3-hydroxy-3-methylglutaryl coenzyme A synthase (enzyme, UniProt Q9FD87 1-388)
chain: MTIGIDKINFYVPKYYVDMAKLAEARQVDPNKFLIGIGQTEMAVSPVNQDIVSMGANAAKDIITDEDKKKIGMVIVATESAVDAAKAAAVQIHNLLGIQPFARCFEMKEACYAATPAIQLAKDYLATRPNEKVLVIATDTARYGLNSGGEPTQGAGAVAMVIAHNPSILALNEDAVAYTEDVYDFWRPTGHKYPLVDGALSKDAYIRSFQQSWNEYAKRQGKSLADFASLCFHVPFTKMGKKALESIIDNADETTQERLRSGYEDAVDYNRYVGNIYTGSLYLSLISLLENRDLQAGETIGLFSYGSGSVVEFYSATLVVGYKDHLDQAAHKALLNNRTEVSVDAYETFFKRFDDVEFDEEQDAVHEDRHIFYLSNIENNVREYHRPE
B2: 50S ribosomal protein L28 (protein, UniProt A6QGC4 1-62)
chain: MGKQCFVTGRKASTGNRRSHALNSTKRRWNANLQKVRILVDGKPKKVWVSARALKSGKVTRV
B3: Secretory antigen SsaA (protein, UniProt Q2FV55 27-255)
chain: AEQNNNGYNSNDAQSYSYTYTIDAQGNYHYTWTGNWNPSQLTQNNTYYYNNYNTYSYNNASYNNYYNHSYQYNNYTNNSQTATNNYYTGGSGASYSTTSNNVHVTTTAAPSSNGRSISNGYASGSNLYTSGQCTYYVFDRVGGKIGSTWGNASNWANAAASSGYTVNNTPKVGAIMQTTQGYYGHVAYVEGVNSNGSVRVSEMNYGHGAGVVTSRTISANQAGSYNFIH
B4: Probable malate:quinone oxidoreductase (enzyme, UniProt Q6G669 1-498)
chain: MAKSNSKDIVLIGAGVLSTTFGSMLKEIEPDWNIHVYERLDRPAIESSNERNNAGTGHAALCELNYTVLQPDGSIDIEKAKVINEEFEISKQFWGHLVKSGSIENPREFINPLPHISYVRGKNNVKFLKDRYEAMKAFPMFDNIEYTEDIEVMKKWIPLMMKGREDNPGIMAASKIDEGTDVNFGELTRKMAKSIEAHPNATVQFNHEVVDFEQLSNGQWEVTVKNRLTGEKFKQVTDYVFIGAGGGAIPLLQKTGIPESKHLGGFPISGQFLACTNPQVIEQHDAKVYGKEPPGTPPMTVPHLDTRYIDGQRTLLFGPFANVGPKFLKNGSNLDLFKSVKTYNITTLLAAAVKNLPLIKYSFDQVIMTKEGCMNHLRTFYPEARNEDWQLYTAGKRVQVIKDTPEHGKGFIQFGTEVVNSQDHTVIALLGESPGASTSVSVALEVLERNFPEYKTEWAPKIKKMIPSYGESLIEDEKLMRKIRKQTSKDLELGYYEN
B5: Fructose-bisphosphate aldolase (enzyme, UniProt A0ABV4SIW0 1-343)
chain: MPIATPEVYAEMLDRAKAGKFAYPAINVTSSQTLNAALRGFAEAESDGIIQISTGGAEFLGGQYNKDMVTGAVALAEYAHIIAEKYDVTVALHTDHCPKGKLDGYVRPLLDISAERVKAGRNPLFQSHMWDGSAETLADNLAIGQELLAKAAAAKIILEVEITPTGGEEDGVSHEINDELYTTVDDAIRTAEALGLGEKGRYLLAASFGNVHGVYKPGNVVLRPELLKDLQEGVGAKYGQTAGSQPFDFVFHGGSGSTEQEIATALENGVVKMNLDTDTQYAFTRPVADHMFRNYDGVLKVDGEVGVKSQYDPRTWGKSAEAGMAKRVSEACANLRSTGTKLK

The assay deals with FLAG-tagged TrxP^CS (C32S TrxP) (S. aureus strain Newman). Briefly: affinity purification with mass spectrometry + cross-linking; mechanism-based trapping: FLAG-tagged Trx with the resolving Cys mutated to Ser expressed from pOS1 in S. aureus Newman (TrxA^CS in wild type; TrxP^CS and TrxQ^CSS in ΔtrxP/ΔtrxQ), 0.2 mM Na2S for 20 min; lysate on anti-FLAG M2 affinity gel 2 h at 4°C, eluted with 3x-FLAG peptide, trypsin, LC-MS/MS of mixed-disulfide crosslinked peptides; three biological replicates.
As for B1, the binding entry is “binds”.

Consider B2, for which the binding result is listed as “binds”.

On to B3, for which the binding result was “binds”.

With B4, the binding entry is reported as “binds”.

B5: the binding entry is reported as “binds”.
